Sequences of proteins named here, by UniProt entry; tags and fusion partners are left off.
UniProt Q92830, whole entry, looked up: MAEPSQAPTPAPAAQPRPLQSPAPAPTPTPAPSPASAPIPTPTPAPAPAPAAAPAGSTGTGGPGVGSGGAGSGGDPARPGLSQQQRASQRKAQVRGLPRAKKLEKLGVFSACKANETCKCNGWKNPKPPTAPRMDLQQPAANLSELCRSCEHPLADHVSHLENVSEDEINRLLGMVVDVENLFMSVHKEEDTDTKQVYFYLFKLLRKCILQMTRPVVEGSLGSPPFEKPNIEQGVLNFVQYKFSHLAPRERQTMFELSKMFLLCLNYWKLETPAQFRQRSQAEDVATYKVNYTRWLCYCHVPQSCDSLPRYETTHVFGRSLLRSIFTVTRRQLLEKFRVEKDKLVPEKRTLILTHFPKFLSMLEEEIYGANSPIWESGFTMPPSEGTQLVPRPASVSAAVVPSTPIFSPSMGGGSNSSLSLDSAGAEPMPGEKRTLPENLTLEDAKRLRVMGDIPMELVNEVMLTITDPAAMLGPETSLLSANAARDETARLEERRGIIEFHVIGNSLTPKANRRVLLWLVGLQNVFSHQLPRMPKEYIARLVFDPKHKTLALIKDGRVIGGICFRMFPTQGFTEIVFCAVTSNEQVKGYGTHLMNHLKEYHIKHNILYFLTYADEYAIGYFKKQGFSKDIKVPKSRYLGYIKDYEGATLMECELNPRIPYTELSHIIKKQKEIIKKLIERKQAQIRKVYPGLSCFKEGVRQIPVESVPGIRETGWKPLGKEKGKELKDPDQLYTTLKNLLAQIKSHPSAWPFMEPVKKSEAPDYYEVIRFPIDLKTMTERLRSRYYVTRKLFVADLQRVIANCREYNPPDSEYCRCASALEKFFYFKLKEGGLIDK

Out of some 390,000 compounds screened, about 820 (0.21%) were called active. This list was built around the results that the source calls inconclusive (neither active nor inactive); the mix of calls is not that of the screen. The call rests on the fitted dose curve; in most records, active means well fitted inhibition curve with a large enough effect; inconclusive means small, poorly fitted or top-dose-only effect, or another doubt; inactive means no such curve, though single readings can be large or run the other way. Potencies beside an inconclusive call are fits to weak or partial responses and may not hold up.
These molecules were tested against Histone acetyltransferase KAT2A (Homo sapiens) (UniProt Q92830) (assay: qHTS Assay for Inhibitors of GCN5L2). Details: GCN5L2 HAT assay, ThioGlo1 CoA-SH fluorescence; series mostly up to 58.9 µM.
Procedure, shortened: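 Compounds, pin-transferred from DMSO stocks, meet 20nM GCN5L2 for 15 min before the reaction begins with H3(1-25) peptide (75uM) and acetyl-CoA (70uM). Thiol-reactive ThioGlo1 reports CoA release over 20 min at room temperature.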
In the case of `CCOC(=O)Oc1c(OC)cc(C(=O)O[C@H]2C[C@H]3CN4CCc5c([nH]c6cc(OC)ccc56)[C@@H]4C[C@H]3[C@@H](C(=O)OC)[C@@H]2OC)cc1OC`, the Potency is reported as inconclusive: 12.6 µM [inhibitor, partial curve]. For `Cc1ccc2cccc(NC(=O)c3ccc(-c4ccc(Br)cc4)o3)c2n1`, the Potency was “inactive”. For `Cc1c(C)c2c(OCC(=O)N3CCC[C@H]3C(=O)O)cc3c(c2oc1=O)CCC(C)(C)O3`, the Potency was inconclusive: 39.8 µM [inhibitor, single point]. With `O=S(=O)(c1ccc(F)c(F)c1)N1CCN(c2ccccn2)CC1` the Potency was inconclusive: 39.8 µM [inhibitor, single point]. `COc1cc(Cl)ccc1OCc1cc(C(=O)N(C)CCc2cnn(C)c2)no1` was tested, and the Potency was “inactive”. In the case of `CCOc1cc(C(=O)NCc2nnc(SCC(=O)OC)n2C)cc(OCC)c1OCC`, the Potency is reported as inconclusive: 8.91 µM [inhibitor, single point]. `O=C(Nc1ccc(S(=O)(=O)Nc2nccs2)cc1)c1c(F)c(F)c(F)c(F)c1F` was tested, and the Potency was inconclusive: 3.98 µM [inhibitor, full curve, poor fit]. With `OCCN1CCN(c2nc(-c3ccccc3)c3cc(Cl)ccc3n2)CC1` the Potency was inconclusive: 0.708 µM [inhibitor, single point]. `Cc1ccc(C(Nc2ccccn2)c2ccc3cccnc3c2O)cc1` (stereo unspecified) was tested, and the Potency was “inactive”. For `COc1cc(OC)c(S(=O)(=O)N2CCOCC2)cc1S(=O)(=O)N1CCOCC1`, the Potency was inconclusive: 0.1 µM [inhibitor, full curve, poor fit]. `CCC1(c2ccccc2)NC(=S)N(c2ccc(C)cc2)N1` (stereo unspecified) was tested, and the Potency was inconclusive: 35.5 µM [inhibitor, single point]. For `CC(=O)c1ccc(NC(=O)c2ccc(NC(=O)c3ccco3)cc2)cc1`, the Potency was inconclusive: 3.16 µM [inhibitor, single point]. With `C=CCN(C(=O)CNS(=O)(=O)c1ccccc1)C(C(=O)NCCOC)c1ccncc1` (stereo unspecified) the Potency was inconclusive: 39.8 µM [inhibitor, single point]. In the case of `CC(=O)Oc1ccc(N(C(C)=O)S(=O)(=O)c2ccc(C)cc2C)c2ccccc12`, the Potency is reported as “inactive”. With `Cn1nnc2cc(C(=O)NC3CCCCC3)ccc21` the Potency was inconclusive: 5.01 µM [inhibitor, partial curve]. In the case of `Nc1c(C(=O)N2CCCCC2)sc(=S)n1-c1ccccc1`, the Potency is reported as inconclusive: 14.1 µM [inhibitor, partial curve]. In the case of `COc1ccc(C2=Nn3c(nnc3-c3ccco3)SC2)cc1OC`, the Potency is reported as inconclusive: 2.82 µM [inhibitor, single point]. In the case of `COC(=O)c1c(NC(=O)CN2C(=O)C(=O)N(CC(C)C)C2=O)sc2c1CCCCC2`, the Potency is reported as inconclusive: 3.55 µM [inhibitor, single point]. For `COc1cccc(N2CC(C(=O)Nc3nnc(SCC(=O)NCc4ccco4)s3)CC2=O)c1` (stereo unspecified), the Potency was inconclusive: 1 µM [inhibitor, full curve, poor fit]. `O=C(COC(=O)c1ccc(O)cc1)Nc1nccs1` was tested, and the Potency was inconclusive: 2.24 µM [inhibitor, single point]. In the case of `O=C(/C=C/c1cccc(Br)c1)Nc1nn[nH]n1`, the Potency is reported as “inactive”. `Cc1cc(/C=N/Nc2nc(N)ncc2[N+](=O)[O-])c(C)n1-c1ccccc1F` was tested, and the Potency was inconclusive: 0.708 µM [inhibitor, single point]. For `CC1CCc2sc(C(=O)OCC(=O)NCc3ccccc3)cc2C1` (stereo unspecified), the Potency was “inactive”. In the case of `CC(C)CCCC(C)CCCC(C)CCCC(C)C(=O)O` (stereo unspecified), the Potency is reported as active: 11.2 µM. In the case of `COC(=O)c1ccc(NC(=O)c2ccc(NC(=O)c3ccco3)cc2)cc1`, the Potency is reported as inconclusive: 22.4 µM [inhibitor, single point]. For `COc1ccc(C(=O)/C=C/c2ccccc2C(F)(F)F)cc1`, the Potency was inconclusive: 2.51 µM [inhibitor, partial curve]. In the case of `COc1ccccc1C(=O)Nc1nc(N)n(-c2ccccc2)n1`, the Potency is reported as inconclusive: 1 µM [inhibitor, full curve, poor fit]. With `O=C1OC[C@@H]2CCCN2C(=O)[C@@H](CC(=O)N(CCO)Cc2ccccc2)C/C=C\CC[C@H]1Cc1ccc(F)cc1` the Potency was “inactive”. `CCOC(=O)C1CCN(C(=O)Nc2ccc3nc(-c4ccco4)c(-c4ccco4)nc3c2)CC1` was tested, and the Potency was inconclusive: 3.16 µM [inhibitor, full curve, poor fit]. For `CNc1nc2c(Cl)cc(Cl)cc2s1`, the Potency was inconclusive: 0.355 µM [inhibitor, full curve, poor fit]. With `Cc1ccc(-n2nnnc2-c2cccnc2)cc1` the Potency was inconclusive: 7.08 µM [inhibitor, single point]. With `O=C(COC(=O)c1ccc(Br)o1)Nc1ncc([N+](=O)[O-])s1` the Potency was inconclusive: 15.8 µM [inhibitor, partial curve]. With `C=CCOc1cccc(C2/C(=C(/O)c3ccc(C)cc3)C(=O)C(=O)N2CCN2CCOCC2)c1` (stereo unspecified) the Potency was inconclusive: 0.501 µM [inhibitor, single point]. For `Cn1c(SCC(=O)NC2CC2)nnc1C1CC1`, the Potency was inconclusive: 44.7 µM [inhibitor, partial curve, poor fit]. For `O=C1/C(=C\c2cccs2)CCC/C1=C/c1cccs1`, the Potency was inconclusive: 20 µM [inhibitor, partial curve]. In the case of `CCN(CC)c1ccc(N=Cc2cc(Br)ccc2O)cc1`, the Potency is reported as “inactive”. In the case of `CSc1nc2nc(-c3ccccc3)cc(=O)n2[nH]1`, the Potency is reported as inconclusive: 39.8 µM [inhibitor, single point]. For `O=C(CNC(=O)c1sc2ccccc2c1Cl)Nc1ccccc1F`, the Potency was inconclusive: 0.891 µM [inhibitor, single point]. For `O=C(Cn1nnc(-c2ccccc2)n1)N1CCN(S(=O)(=O)c2ccc(Cl)cc2)CC1`, the Potency was inconclusive: 3.55 µM [inhibitor, partial curve, poor fit]. With `CCCc1nc2oc3c(OC)ncnc3c2c2c1COC(C)(C)C2` the Potency was “inactive”. `CSCc1cc(N2CCCC2)nc(-c2ccccc2)n1` was tested, and the Potency was “inactive”. In the case of `Cc1ccc2nc(/C(C#N)=C/c3cccc(Br)c3)[nH]c2c1`, the Potency is reported as inconclusive: 22.4 µM [inhibitor, single point]. For `Cc1noc(C)c1CSc1nc2ccccc2s1`, the Potency was inconclusive: 3.16 µM [inhibitor, partial curve]. With `CC(=O)N1CCc2c(sc3c2c(=O)n(-c2ccccc2)c(=O)n3CC(=O)NCC2CCCO2)C1` (stereo unspecified) the Potency was inconclusive: 0.398 µM [inhibitor, full curve, poor fit]. `Cc1ccccc1S(=O)(=O)N1[C@@H](c2cccc(Cl)c2)C(C(=O)O)=CC[C@H]1c1ccc(Cl)cc1` was tested, and the Potency was inconclusive: 35.5 µM [inhibitor, single point]. In the case of `O=C1NN(c2ccccc2)C(=O)/C1=C/c1ccc(-c2ccc(C(=O)O)cc2)o1`, the Potency is reported as inconclusive: 15.8 µM [inhibitor, partial curve]. With `CC(C)(CNC(=S)NCCc1ccccc1)CNC(=S)NCCc1ccccc1` the Potency was “inactive”. With `COc1cc(C=NNc2ccc(S(=O)(=O)Nc3ccccc3C(=O)O)cc2[N+](=O)[O-])ccc1O` the Potency was inconclusive: 25.1 µM [inhibitor, single point]. In the case of `COc1ccc2c(C(=O)CN3CCN(c4ccccc4)CC3)c[nH]c2c1`, the Potency is reported as inconclusive: 39.8 µM [inhibitor, single point]. For `Cc1nnc(Sc2c(-c3ccccc3)c3ccc(Cl)cc3[nH]c2=O)s1`, the Potency was inconclusive: 0.355 µM [inhibitor, full curve, poor fit]. With `Cc1nn(C)c(C)c1CNC(=O)c1cc2n(n1)C(C(F)(F)F)CC(c1cccs1)N2` (stereo unspecified) the Potency was “inactive”. In the case of `Cc1nc(N2CCCC2)c2c(C(=O)Nc3ccc(C)c(Cl)c3)c(C)oc2n1`, the Potency is reported as “inactive”. In the case of `COc1cc(OC)cc(C(=O)Nc2cccc(NC(=O)c3ccccc3)c2)c1`, the Potency is reported as “inactive”. `O=C(c1cc(-c2ccc(Cl)s2)nc2ccccc12)N1CCOCC1` was tested, and the Potency was inconclusive: 2.82 µM [inhibitor, partial curve]. In the case of `O=S(=O)(Nc1cccc(Cl)c1)c1ccc2[nH]c3c(c2c1)CCCCCC3`, the Potency is reported as “inactive”. With `O=C(Nc1ccccc1F)c1ccc([N+](=O)[O-])s1` the Potency was “inactive”. With `C[C@@H]1CCCCCCCCC(=O)OCCN[C@H](C)CCCCCCCCC(=O)OCCN[C@H](C)CCCCCCCCC(=O)OCCN1` the Potency was “inactive”. In the case of `COc1ccc(CC(=O)Nc2ccncc2Cl)cc1`, the Potency is reported as inconclusive: 5.62 µM [inhibitor, full curve, poor fit]. In the case of `Cc1cc(C)c(NC(=O)COc2ccc(-n3cnnn3)cc2)c(C)c1`, the Potency is reported as inconclusive: 0.708 µM [inhibitor, single point]. In the case of `COc1cc(-c2nc(C(=O)NCC3CCCO3)cc3c2[nH]c2ccccc23)cc(OC)c1OC` (stereo unspecified), the Potency is reported as inconclusive: 7.08 µM [inhibitor, single point]. `CCCOc1ccc(C(=O)Nc2ccc(CN3CCOCC3)cc2)cc1` was tested, and the Potency was inconclusive: 39.8 µM [inhibitor, single point]. For `O=C1Cc2c([nH]c3ccc(Br)cc23)-c2ccccc2N1`, the Potency was inconclusive: 39.8 µM [inhibitor, single point]. With `Cc1cccc(-n2ncc3c2CCCC3NC(=O)Cc2c(C)noc2C)c1C` (stereo unspecified) the Potency was inconclusive: 35.5 µM [inhibitor, single point]. With `Cc1ccc(C(=O)NC(NC(=O)c2ccc(C)cc2)C(Cl)Cl)cc1` the Potency was inconclusive: 7.08 µM [inhibitor, single point]. `CCOc1ccc(-c2csc(NNC3=NCCCCC3)n2)cc1` was tested, and the Potency was “inactive”. With `C/C(=N\NC(=O)c1ccc(N2CCCC2=O)cc1)c1ccc(O)cc1O` the Potency was inconclusive: 5.62 µM [inhibitor, full curve, poor fit].

Reference: PubChem BioAssay AID504327 (National Center for Advancing Translational Sciences (NCATS), 2011)
Potency means the concentration at half of the fitted maximal effect.
